The results in this text go back to patent publication US20250320303A1 (SHENGHE CHINA BIOPHARMACEUTICAL, published 2025).

Sequences of proteins named here, by UniProt entry; tags and fusion partners are left off. Residues count along the entry.
UniProt P20333, residues 23-257: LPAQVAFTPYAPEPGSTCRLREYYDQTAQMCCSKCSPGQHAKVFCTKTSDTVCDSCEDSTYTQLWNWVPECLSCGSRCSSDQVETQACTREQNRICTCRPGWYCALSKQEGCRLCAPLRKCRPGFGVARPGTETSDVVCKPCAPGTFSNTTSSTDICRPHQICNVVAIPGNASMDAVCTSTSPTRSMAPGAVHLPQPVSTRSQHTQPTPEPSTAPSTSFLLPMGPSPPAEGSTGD

These are yes or no findings as the source states them, for the method shown. Some results given as binding are weak or reduced against the parent protein; the word gives no strength.

The experiment addresses human W3785-hProl.ECD.His (Human-TNFR2-His) protein (human) (UniProt P20333). Nature of the experiment: BLI (Octet Red96e), antibody on AHC sensor.

B1: Antibody 28 (antibody, V domains shown)
VH: EVQLVQSGAEVKKPGATVKISCKVSGYSITDYLLHWVQQAPGKGLEWMGWIDPEDAKTKYGQKFQSRVTITADTSTDTAYMELSSLRSEDTAVYYCAANSATGTMDAWGQGTLVTVSS
VL: DIVMTQSPATLSVSPGERATLSCKASQNVGSNVDWYQQKPGQSPRVLIYKASIRYTGIPARFSGSGSGTEFTLTISILQSEDFAVYFCMQSKSYPITFGQGTKLEIK
notes: captured on AHC sensors
As to B1, the binding entry is “binds”.
